Taken from: PubChem BioAssay AID1259254 (NCATS, 2017)

Purpose: 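Finding genes that stop cells copying their DNA twice in one cycle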 (primary screen)
Cells: human HCT116 colorectal cancer cells
Reagent: single siRNA against human genes
Timing: 3 days
Detection: 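Nuclei stained with Hoechst and imaged; cell-cycle phase assigned by DNA content; G2 share scaled per plate, non-targeting siRNA 0%, GMNN siRNA 100%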
Scale: G2 robust z-score: higher = more G2 cells, more excess DNA replication
Hit rule: 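Active siRNAs have a G2 robust z of 5 or more median absolute deviations over the median, which in these data means about 38% or higher of GMNN control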
Here is an unselected part of about 59,000 reagents tested. About 1,550 of them (2.6%) were called active. 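G2 share is only a proxy for re-replication; each gene was hit by three separate siRNAs, and active genes were retested.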 A number with no mark means an inactive call. Reagents against one gene are numbered here. Not all columns of the deposit are shown. Not stated in the record: the amount of reagent.

G2 robust z-score, by gene and reagent
SNIP1 (GeneID 79753): #1 -0.839; #2 -0.704; #3 -0.317
RAG2 (GeneID 5897): #1 -0.912; #2 2.69; #3 -0.0952
RAB4A (GeneID 5867): #1 4.55; #2 -0.057; #3 -0.692
TMBIM1 (GeneID 64114): #1 1.98; #2 -0.836; #3 4.77
ANXA10 (GeneID 11199): #1 -0.586; #2 -0.881; #3 -0.422
AFF4 (GeneID 27125): #1 0.507; #2 -0.387; #3 0.21
LIX1 (GeneID 167410): #1 -0.06; #2 -0.25; #3 -0.418
PDIA3 (GeneID 2923): #1 2.36; #2 -0.763; #3 1.15
BDP1 (GeneID 55814): #1 5.61 (active); #2 3.03; #3 4.27
RBP4 (GeneID 5950): #1 -0.564; #2 1.91; #3 1.07
CHRDL2 (GeneID 25884): #1 -0.306; #2 3.32; #3 -1.37

Records above with an active call:
G2 robust z-score, by gene and reagent
BDP1 (GeneID 55814): #1 5.61 (active)

Further reagents:
G2 robust z-score, by gene and reagent
MED27 (GeneID 9442): #1 1.92; #2 3.44; #3 1.41
CRY1 (GeneID 1407): #1 -0.815; #2 -0.0535; #3 -0.942
MDC1 (GeneID 9656): #1 0.294; #2 0.471; #3 -1.32
GALR1 (GeneID 2587): #1 -1.14; #2 -0.162; #3 -0.801
LRSAM1 (GeneID 90678): #1 -0.646; #2 0.863; #3 -0.159
GNAZ (GeneID 2781): #1 0.462; #2 -0.865; #3 -0.524
UBTFL5 (GeneID 728231): #1 -0.152; #2 0.244; #3 -0.919
ZNF638 (GeneID 27332): #1 -0.145; #2 -0.112; #3 -0.553
PUM1 (GeneID 9698): #1 -0.222; #2 -0.365; #3 -0.558
TXNRD3 (GeneID 114112): #1 -0.971; #2 1.91; #3 -1.55; #4 -0.992; #5 0.154; #6 1.62
KLHL31 (GeneID 401265): #1 -0.452; #2 -0.408; #3 0.394
